Laboratory results taken from publication PMC8541566.
These are yes or no findings as the source states them, for the method shown. In cells and extracts the contact can be indirect. Some results given as binding are weak or reduced against the parent protein; the word gives no strength. Where a sequence is shown, tags or fusion partners need not be part of it.

Tests used:
Assay in all cases: co-IP; GFP-tagged Hrr25 or GFP precipitated with GFP-trap agarose beads from yeast extracts (100 µg protein, 4 °C, 2 h; washes 50 mM Tris-HCl pH 7.5, 150 mM NaCl, 0.5% Triton); immunoblot for Pkc1-HA; cells untreated, treated with 250 mM HU for 4 h or with UV 150 J/m^2; also in sml1Δ mec1Δ tel1Δ cells
[1] = biological target: T1, Hrr25-GFP from plasmid p3562 (pRS423-HRR25-GFP), own promoter (S. cerevisiae) (UniProt P29295)
T1 sequence: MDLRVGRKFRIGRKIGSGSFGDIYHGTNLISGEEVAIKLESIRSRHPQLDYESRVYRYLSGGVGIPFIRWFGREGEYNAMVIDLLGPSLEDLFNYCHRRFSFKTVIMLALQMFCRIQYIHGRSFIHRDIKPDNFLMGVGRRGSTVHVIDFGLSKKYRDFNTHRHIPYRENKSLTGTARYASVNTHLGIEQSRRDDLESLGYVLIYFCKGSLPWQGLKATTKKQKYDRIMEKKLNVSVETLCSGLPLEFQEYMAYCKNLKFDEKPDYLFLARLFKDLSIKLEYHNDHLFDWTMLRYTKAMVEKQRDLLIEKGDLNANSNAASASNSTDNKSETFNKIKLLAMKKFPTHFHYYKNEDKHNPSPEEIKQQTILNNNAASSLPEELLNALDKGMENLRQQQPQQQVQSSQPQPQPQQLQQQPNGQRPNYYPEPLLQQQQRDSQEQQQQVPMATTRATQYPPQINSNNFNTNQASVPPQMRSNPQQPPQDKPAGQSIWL

[2] = biological target: T2, Hrr25-Δ404-GFP (C-terminally truncated Hrr25 lacking residues 405-494, from plasmid p3567) (S. cerevisiae) (UniProt P29295)
T2 sequence: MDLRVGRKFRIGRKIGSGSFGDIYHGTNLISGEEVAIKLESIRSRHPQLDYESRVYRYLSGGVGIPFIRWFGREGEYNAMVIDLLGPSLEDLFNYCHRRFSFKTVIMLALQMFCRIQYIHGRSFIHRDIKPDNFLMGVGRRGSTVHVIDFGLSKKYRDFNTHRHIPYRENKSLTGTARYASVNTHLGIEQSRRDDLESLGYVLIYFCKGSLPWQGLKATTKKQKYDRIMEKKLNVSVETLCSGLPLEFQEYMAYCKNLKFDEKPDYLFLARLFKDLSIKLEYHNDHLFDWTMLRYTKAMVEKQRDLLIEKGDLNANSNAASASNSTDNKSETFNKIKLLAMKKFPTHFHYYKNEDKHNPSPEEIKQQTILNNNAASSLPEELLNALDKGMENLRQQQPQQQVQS

[3] = biological target: T3, GFP-tagged Hrr25 from plasmid p3357 (pUG36-HRR25-GFP), MET25 promoter (S. cerevisiae) (UniProt P29295)
T3 sequence: T1 sequence

Measured: binding

B1: Pkc1-HA (protein kinase C 1, HA-tagged, from plasmid p813 YEp351-PKC1-HA) (enzyme, UniProt P24583 1-1151)
chain: MSFSQLEQNIKKKIAVEENIIRGASALKKKTSNVMVIQKCNTNIREARQNLEYLEDSLKKLRLKTAQQSQGENGSEDNERCNSKEYGFLSTKSPNEHIFSRLDLVKYDCPSLAQRIQYMLQQLEFKLQVEKQYQEANTKLTKLYQIDGDQRSSSAAEGGAMESKYRIQMLNKALKKYQAINVDFDQFKHQPNDIMDNQQPKFRRKQLTGVLTIGITAARDVDHIQSPMFARKPESYVTIKIDDTIKARTKPSRNDRWSEDFQIPVEKGNEIEITVYDKVNDSLIPVAIMWLLLSDIAEEIRKKKAGQTNEQQGWVNASNINGGSSLASEEGSTLTSTYSNSAIQSTSAKNVQGENTSTSQISTNSWFVLEPSGQILLTLGFHKSSQIERKQLMGGLHRHGAIINRKEEIFEQHGHHFVQKSFYNIMCCAYCGDFLRYTGFQCQDCKFLCHKKCYTNVVTKCIAKTSTDTDPDEAKLNHRIPHRFLPTSNRGTKWCCHCGYILPWGRHKVRKCSECGIMCHAQCAHLVPDFCGMSMEMANKILKTIQDTKRNQEKKKRTVPSAQLGSSIGTANGSDLSPSKLAERANAPLPPQPRKHDKTPSPQKVGRDSPTKQHDPIIDKRISLQTHGREKLNKFIDENEAYLNFTEGAQQTAEFSSPEKTLDPTSNRRSLGLTDLSIEHSQTWESKDDLMRDELELWKAQREEMELEIKQDSGEIQEDLEVDHIDLETKQKLDWENKNDFREADLTIDSTHTNPFRDMNSETFQIEQDHASKEVLQETVSLAPTSTHASRTTDQQSPQKSQTSTSAKHKKRAAKRRKVSLDNFVLLKVLGKGNFGKVILSKSKNTDRLCAIKVLKKDNIIQNHDIESARAEKKVFLLATKTKHPFLTNLYCSFQTENRIYFAMEFIGGGDLMWHVQNQRLSVRRAKFYAAEVLLALKYFHDNGVIYRDLKLENILLTPEGHIKIADYGLCKDEMWYGNRTSTFCGTPEFMAPEILKEQEYTKAVDWWAFGVLLYQMLLCQSPFSGDDEDEVFNAILTDEPLYPIDMAGEIVQIFQGLLTKDPEKRLGAGPRDADEVMEEPFFRNINFDDILNLRVKPPYIPEIKSPEDTSYFEQEFTSAPPTLTPLPSVLTTSQQEEFRGFSFMPDDLDL
binds: [1] | [2] | [3]
